{"sequences": {"note": "Sequences of proteins named here, by UniProt entry; tags and fusion partners are left off.", "UniProt P32240": "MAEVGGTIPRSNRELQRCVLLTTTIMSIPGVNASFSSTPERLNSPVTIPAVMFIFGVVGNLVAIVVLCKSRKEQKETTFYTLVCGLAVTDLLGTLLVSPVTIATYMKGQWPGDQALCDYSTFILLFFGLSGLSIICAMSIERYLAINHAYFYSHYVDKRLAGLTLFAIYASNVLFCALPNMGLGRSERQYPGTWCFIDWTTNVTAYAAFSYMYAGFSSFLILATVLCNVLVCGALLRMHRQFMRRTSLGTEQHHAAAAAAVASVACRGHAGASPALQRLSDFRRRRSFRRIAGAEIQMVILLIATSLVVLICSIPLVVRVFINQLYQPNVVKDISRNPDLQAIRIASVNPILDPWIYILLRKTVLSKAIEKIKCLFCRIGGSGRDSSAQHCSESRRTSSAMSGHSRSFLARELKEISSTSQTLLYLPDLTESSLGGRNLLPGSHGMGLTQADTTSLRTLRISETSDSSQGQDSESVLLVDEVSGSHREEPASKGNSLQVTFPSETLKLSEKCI", "UniProt Q99MK8": "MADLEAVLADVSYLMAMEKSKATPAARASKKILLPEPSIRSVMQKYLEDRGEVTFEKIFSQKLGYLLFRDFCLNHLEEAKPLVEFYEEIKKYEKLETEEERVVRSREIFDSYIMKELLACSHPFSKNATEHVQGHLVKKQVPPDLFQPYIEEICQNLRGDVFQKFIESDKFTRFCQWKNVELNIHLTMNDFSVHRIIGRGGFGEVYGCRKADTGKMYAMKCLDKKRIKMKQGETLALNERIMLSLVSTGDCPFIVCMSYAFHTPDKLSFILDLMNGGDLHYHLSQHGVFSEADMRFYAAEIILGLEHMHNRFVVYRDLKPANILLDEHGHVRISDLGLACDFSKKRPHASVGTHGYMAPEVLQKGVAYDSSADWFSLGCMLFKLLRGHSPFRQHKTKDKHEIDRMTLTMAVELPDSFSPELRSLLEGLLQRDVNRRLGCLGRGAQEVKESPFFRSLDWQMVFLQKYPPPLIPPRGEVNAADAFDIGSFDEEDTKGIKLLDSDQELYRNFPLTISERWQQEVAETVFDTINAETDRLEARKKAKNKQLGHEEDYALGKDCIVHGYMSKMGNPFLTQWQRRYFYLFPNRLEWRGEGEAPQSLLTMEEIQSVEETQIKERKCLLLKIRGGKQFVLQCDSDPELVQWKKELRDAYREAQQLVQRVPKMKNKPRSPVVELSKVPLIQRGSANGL"}, "source": "paper PMC6953022", "key": {"[1]": {"target": "PGE2 receptor EP4 (mouse (endogenous in peritoneal macrophages and Raw264.7)) (UniProt P32240)", "assay": "co-IP; endogenous proteins of peritoneal macrophages (PMs) of normal and CIA mice; standard protocol of ref. 16; which protein was precipitated is not told"}, "[2]": {"target": "PGE2 receptor EP4 (mouse (endogenous in peritoneal macrophages and Raw264.7)) (UniProt P32240)", "assay": "co-IP; endogenous proteins of Raw264.7 cells: M0 (not induced), M1 (TNF-alpha and IFN-gamma, 24 h) and M2 (IL-4, 24 h); standard protocol of ref. 16; which protein was precipitated is not told"}}, "note": "No constants are given. Whether binding was seen depends on the method and setting. In cells and extracts the contact can be indirect. Some entries that bind do so weakly or less than the wild type.", "data": [{"sequence": "G protein-coupled receptor kinase 2 (from UniProt Q99MK8 1-689) (enzyme)", "values": [{"measurement": "binding", "setting": "[1]", "result": "binds"}, {"measurement": "binding", "setting": "[2]", "result": "binds"}]}]}
